Experimental findings from the supplement of paper PMC12578635 are described below.

The list shows a part of the results. Cut-off read from the data, not from the text of the source: active = 150% or more and inactive = the rest. Many values rest on one well or one pass, so single values are uncertain.

The test relates to Staphylococcus aureus JE2-lux inside RAW 264.7 macrophages. As to the kind of experiment: intracellular bacterial bioluminescence relative to DMSO vehicle; higher = higher intracellular bacterial metabolic activity. The settings on record: 10 µM; treatment time 4 h; gentamicin 50 µg/ml.
Turning to `COc1ccc(NC(=O)CC2SC(=N)NC2=O)cc1Cl` (stereo unspecified), the intracellular bacterial bioluminescence is inactive: 86.8%.

For `O=C(COC(=O)c1ccc2ccccc2n1)c1ccc(Cl)c(Cl)c1`, the intracellular bacterial bioluminescence was inactive: 116%.

For the molecule `N#Cc1c(N)nc(SCC(=O)c2ccc(Br)cc2)c(C#N)c1-c1cccs1`, the intracellular bacterial bioluminescence was inactive: 111%.

Take `COc1ccc(C2C(C#N)=C(SCC(=O)Nc3ccccc3C)NC3=C2C(=O)CC(C)(C)C3)cc1` (stereo unspecified): the intracellular bacterial bioluminescence is inactive: 87.2%.

For `Cc1ccc2c(c1)C(O)(CC(=O)c1ccc(C)s1)C(=O)N2` (stereo unspecified), the intracellular bacterial bioluminescence was inactive: 103%.

For the molecule `Clc1ccccc1-n1cc(-c2ccccc2)c2c(NCc3ccco3)ncnc21`, the intracellular bacterial bioluminescence was inactive: 70%.

On to `COc1ccc(Nc2ncnc3sc(C(=O)O)c(C)c23)c(OC)c1`, for which the intracellular bacterial bioluminescence is inactive: 102%.

As for `CC1(C)CC(=O)c2sc(NC(=O)c3ccc(NS(=O)(=O)c4ccc(Cl)cc4)cc3)nc2C1`, the intracellular bacterial bioluminescence is inactive: 119%.

Take `Cc1ccc(NC(=O)CSc2ccnc3c2c(=O)n(C)c(=O)n3C)cc1Cl`: the intracellular bacterial bioluminescence is inactive: 107%.

`Cc1ccc2oc(SCc3noc(CCC(=O)Nc4nncs4)n3)nc2c1`: the intracellular bacterial bioluminescence was inactive: 102%.

On to `COc1ccccc1NC(=O)CCCn1c(=S)[nH]c2ccccc2c1=O`, for which the intracellular bacterial bioluminescence was inactive: 14.9%.

On to `COc1ccc(-c2nc3c4c(C)c(C)n(C5CCCCC5)c4ncn3n2)cc1`, for which the intracellular bacterial bioluminescence is inactive: 132%.

For the molecule `Cc1nnc(SCC(=O)N2CCc3ccccc32)[nH]c1=O`, the intracellular bacterial bioluminescence was inactive: 109%.

In the case of `Cc1nn(-c2ccccc2)c2sc(C(=O)NCCc3ccccc3)cc12`, the intracellular bacterial bioluminescence was inactive: 113%.

For the molecule `O=C(O)c1cccnc1SC1CC(=O)N(CCc2ccccc2)C1=O` (stereo unspecified), the intracellular bacterial bioluminescence is inactive: 113%.

Take `Cn1cc(C(=O)Nc2nccs2)c2nn(-c3ccccc3)c(=O)c-2c1`: the intracellular bacterial bioluminescence is inactive: 110%.

Regarding `COc1ccc(Cl)cc1NC(=O)CSC1=NS(=O)(=O)c2cc(F)ccc2N1`, the intracellular bacterial bioluminescence is inactive: 126%.

For `CCCS(=O)(=O)N1CCN(c2cc(N(C)C)nc(C)n2)CC1`, the intracellular bacterial bioluminescence is inactive: 98.4%.

In the case of `Cc1cc(C)c2sc(N3CCN(c4ccccc4)CC3)nc2c1`, the intracellular bacterial bioluminescence is inactive: 92%.

Take `Cc1onc(-c2ccncc2)c1C(=O)NCC(c1ccc(F)cc1)N1CCCC1` (stereo unspecified): the intracellular bacterial bioluminescence is inactive: 87.3%.

With `O=C(c1ccco1)N(CCCn1ccnc1)c1nc2ccc(Br)cc2s1`, the intracellular bacterial bioluminescence is inactive: 93.7%.

On to `O=c1[nH]c(=O)c2cc(S(=O)(=O)Nc3cccc(-c4ccc(F)cc4)c3)ccc2[nH]1`, for which the intracellular bacterial bioluminescence was inactive: 88.2%.

For `COC(=O)COC(=O)c1cnn2c(C(F)(F)F)cc(-c3ccc(C)cc3)nc12`, the intracellular bacterial bioluminescence is inactive: 90.5%.

On to `Cc1sc(NC(=O)CN(Cc2ccccc2)C(=O)c2ccco2)c(C(N)=O)c1C`, for which the intracellular bacterial bioluminescence was inactive: 89.1%.

Consider `Cc1ccc(C(=O)NC2CC3CCC(C2)N3C(=O)Nc2ccccc2)cc1` (stereo unspecified), for which the intracellular bacterial bioluminescence was inactive: 112%.

As to `Cn1c2c(c(=O)n(C)c1=O)C(c1ccccc1Br)C1=C(CCCC1=O)N2` (stereo unspecified), the intracellular bacterial bioluminescence is inactive: 103%.

For `Cc1nc(N2CCCC2)c2c(C)c(C(=O)Nc3cccc(F)c3)sc2n1`, the intracellular bacterial bioluminescence was inactive: 42.6%.

As to `COc1ccccc1NC(=O)c1nc(Nc2cccc(C)c2)c2ccccc2n1`, the intracellular bacterial bioluminescence was inactive: 91.1%.

Regarding `Cc1ccc(Cn2nnc3c(O)nc(Cn4nnc(-c5ccc(Cl)cc5)n4)nc32)cc1`, the intracellular bacterial bioluminescence is active: 166%.

In the case of `Cc1cc(C)nc(NC(=O)CCCn2nnc3cc(S(=O)(=O)N(C)C)ccc32)n1`, the intracellular bacterial bioluminescence was inactive: 113%.

As for `C=CCOC(=O)C1=C(C)NC(SCC(=O)OCC)=C(C#N)C1c1cccs1` (stereo unspecified), the intracellular bacterial bioluminescence was inactive: 79.1%.

For the molecule `CCCc1nc(SCC(=O)c2ccc(Cl)cc2)c2c(=O)n(C)c(=O)n(C)c2n1`, the intracellular bacterial bioluminescence was inactive: 97.6%.

As for `Cc1ncsc1C(=O)N1CCCC(c2nc3ccccc3c(=O)[nH]2)C1` (stereo unspecified), the intracellular bacterial bioluminescence is inactive: 108%.

As to `O=C(CSc1nccc2ccccc12)Nc1c[nH]c2ccccc12`, the intracellular bacterial bioluminescence is inactive: 25.6%.

As to `O=C(CSc1nccc2ccccc12)Nc1ccccc1C(F)(F)F`, the intracellular bacterial bioluminescence is inactive: 92.7%.

On to `COc1ccc(C(=O)N(Cc2nc3[nH]c(C)cc(=O)n3n2)c2ccc(C)cc2)cc1OC`, for which the intracellular bacterial bioluminescence was inactive: 87.6%.

Regarding `CCC(=O)N1CCN(c2nc3ccc(C)cc3cc2-c2noc(-c3ccccc3)n2)CC1`, the intracellular bacterial bioluminescence is inactive: 37.5%.

For the molecule `CC(C)c1ccc(NC(=O)c2cc(C(F)(F)F)n(C)n2)cc1`, the intracellular bacterial bioluminescence was inactive: 91.4%.

In the case of `COc1ccc(NC(=O)C2CCN(c3nc4ccccc4s3)CC2)c(OC)c1`, the intracellular bacterial bioluminescence was inactive: 87.5%.

In the case of `COc1cccc(CNC(=O)c2noc3c2CSc2ccccc2-3)c1`, the intracellular bacterial bioluminescence was inactive: 65.8%.

With `CC(C)c1ccc2nc(SCC(=O)c3ccc4c(c3)OCCO4)c(C#N)cc2c1`, the intracellular bacterial bioluminescence is inactive: 114%.

For the molecule `CCn1cc(C2=NOC(C(=O)NCc3ccccn3)C2)c(C)n1` (stereo unspecified), the intracellular bacterial bioluminescence is inactive: 133%.

Regarding `Cc1nn(C)c(C)c1NC(=O)c1ncoc1-c1ccc(F)cc1`, the intracellular bacterial bioluminescence is inactive: 98.3%.

In the case of `Cc1cccc2sc(NNC(=O)c3ccc(N(C)C)cc3)nc12`, the intracellular bacterial bioluminescence was inactive: 71.6%.

Regarding `O=C1CC(c2ccc(Br)cc2)c2cnn(-c3nc4ccccc4s3)c2N1` (stereo unspecified), the intracellular bacterial bioluminescence is inactive: 113%.

Regarding `Cc1oc(-c2ccno2)cc1S(=O)(=O)Nc1ccc(Br)cc1F`, the intracellular bacterial bioluminescence was inactive: 86.5%.

On to `O=C(Nc1cccc(-c2ccc3nncn3n2)c1)C(c1ccccc1)c1ccccc1`, for which the intracellular bacterial bioluminescence is inactive: 105%.

For the molecule `Cc1nnc(NC(=O)CSc2nnc3ccc(-c4ccncc4)nn23)s1`, the intracellular bacterial bioluminescence is inactive: 99.2%.

On to `O=C(CC1CCN(C(=O)c2cc3ccccc3[nH]2)CC1)NC1CC1`, for which the intracellular bacterial bioluminescence was inactive: 110%.

Take `CCC(C)NC(=O)CSc1nc2cc(C)c(C)cc2cc1C#N` (stereo unspecified): the intracellular bacterial bioluminescence is inactive: 124%.

Take `O=C(O)CCN1C(=O)C2C3CC(C2C1=O)C1C(c2ccc(Cl)cc2)c2sc(=O)[nH]c2SC31` (stereo unspecified): the intracellular bacterial bioluminescence is inactive: 102%.

In the case of `COc1cc2cc3c(N)c(C(=O)c4ccc5c(c4)OCCO5)sc3nc2cc1OC`, the intracellular bacterial bioluminescence was inactive: 116%.

Turning to `O=C(NCCCn1ccnc1)c1ncoc1-c1ccccc1C(F)(F)F`, the intracellular bacterial bioluminescence was inactive: 94.6%.

As for `Cc1ccc(Cn2nnc(C(=O)O)c2C(=O)O)cc1`, the intracellular bacterial bioluminescence is inactive: 31.3%.

As for `CCc1cccc(C)c1NC(=O)Cn1c(=O)cc(C(F)(F)F)c2c(C)nn(C)c21`, the intracellular bacterial bioluminescence is inactive: 100%.

Turning to `COC(=O)c1c(-c2cccc(F)c2)noc1NC1CCCc2ccccc21` (stereo unspecified), the intracellular bacterial bioluminescence was inactive: 54.6%.

Consider `Cc1ccc(/C=C/c2nc(C#N)c(N3CCN(C(=O)COc4ccc(C)cc4)CC3)o2)cc1`, for which the intracellular bacterial bioluminescence was inactive: 93.1%.

With `O=C(CCc1ccccc1)Nc1c2c(nn1-c1ccccc1)CS(=O)(=O)C2`, the intracellular bacterial bioluminescence was inactive: 112%.

On to `O=C(NCCCSc1nc2ccccc2o1)Nc1ncccn1`, for which the intracellular bacterial bioluminescence was inactive: 59.3%.

As to `Nc1cc(-c2ccco2)nn(CC(=O)NCC2COc3ccccc3O2)c1=O` (stereo unspecified), the intracellular bacterial bioluminescence is inactive: 80.8%.

Regarding `O=C(CC1C(=O)N(c2ccc(F)cc2)C(=O)N1NC(=O)c1ccccc1)NCc1ccccc1` (stereo unspecified), the intracellular bacterial bioluminescence was inactive: 112%.

Regarding `Cn1c(CN2CCOCC2)nc2cc(NC(=O)C3(C)CCCO3)ccc21` (stereo unspecified), the intracellular bacterial bioluminescence is inactive: 114%.

As to `Cc1cc2cc(CNC(=O)NC3CCCCC3)ccc2[nH]1`, the intracellular bacterial bioluminescence is inactive: 102%.

`CC1Cc2nc(SCC(=O)NCC3CCCO3)n(C)c(=O)c2S1` (stereo unspecified): the intracellular bacterial bioluminescence is inactive: 92.1%.

As for `CS(=O)(=O)c1ccc2nc(NC(=O)c3ccccc3[N+](=O)[O-])sc2c1`, the intracellular bacterial bioluminescence is inactive: 66.7%.

With `Cc1nn(C)c(C)c1CNC(=O)Cn1c(=O)c(=O)n(Cc2ccncc2)c2ncccc21`, the intracellular bacterial bioluminescence is inactive: 114%.

Turning to `CCOc1ccc(NC(=O)c2sc3nc4c(cc3c2N)C(=O)CC(C)(C)C4)cc1`, the intracellular bacterial bioluminescence was active: 154%.

As to `CC(C)(C)C(=O)N1CCC(NS(=O)(=O)c2ccc3c(c2)NC(=O)CO3)CC1`, the intracellular bacterial bioluminescence is inactive: 105%.

`CCN(c1ccccc1)S(=O)(=O)c1ccc2[nH]c(=O)cc(C)c2c1`: the intracellular bacterial bioluminescence was inactive: 98.5%.

In the case of `O=C(Cn1cccc1-c1nc(-c2ccccc2)cs1)N1CC=C(c2ccccc2)CC1`, the intracellular bacterial bioluminescence was inactive: 104%.

In the case of `COc1ccc2cc(CCNC(=O)c3cccc(C(F)(F)F)c3)c(=O)[nH]c2c1`, the intracellular bacterial bioluminescence was inactive: 90.5%.

On to `CCCCCCCNC(=O)c1c(N)n(/N=C/c2ccco2)c2nc3ccccc3nc12`, for which the intracellular bacterial bioluminescence is inactive: 96.9%.

As to `COC(=O)c1ccc(C(=O)NNc2nc3c(C)cc(C)cc3s2)cc1`, the intracellular bacterial bioluminescence was inactive: 93.2%.

In the case of `N#Cc1c(O)nc(N2CCCCC2)nc1-c1ccc2c(c1)OCO2`, the intracellular bacterial bioluminescence was inactive: 130%.

Take `CCOC(=O)c1ccccc1NC(=O)CSc1ncc(CO)n1Cc1ccc(OC)cc1`: the intracellular bacterial bioluminescence was inactive: 106%.

In the case of `NC(=O)c1ccccc1NC(=O)c1cccn(OCc2ccccc2F)c1=O`, the intracellular bacterial bioluminescence is inactive: 74.7%.

In the case of `Cc1ccccc1-c1nc2sc(N3CCN(CC(=O)N4CCCC4)CC3)nn2c1NC(C)(C)C`, the intracellular bacterial bioluminescence was inactive: 93.3%.

Take `O=C(Cc1cc(=O)[nH]c(=O)[nH]1)N1CCN(C(=O)c2ccco2)CC1`: the intracellular bacterial bioluminescence is inactive: 105%.

With `Cc1cc(=O)n2nc(NCc3ccc(C(=O)Nc4ccc(C)c(Cl)c4)cc3)nc2[nH]1`, the intracellular bacterial bioluminescence was inactive: 110%.

`O=C(CSc1ncccc1C(=O)O)Nc1ccc(Cl)cc1`: the intracellular bacterial bioluminescence was inactive: 117%.

Turning to `COc1ccc(N2CC(NC(=O)Nc3nc4ccc(C)cc4s3)CC2=O)cc1OC` (stereo unspecified), the intracellular bacterial bioluminescence is inactive: 103%.

For the molecule `Cc1ccc(S(=O)(=O)CCCC(=O)Nc2ccc3c(c2)C(=O)NC3=O)cc1`, the intracellular bacterial bioluminescence was inactive: 120%.

Consider `Cc1ccc(OCC(=O)N/N=C/c2ccccc2O)cc1`, for which the intracellular bacterial bioluminescence is inactive: 108%.

Consider `Cc1cc(Cl)ccc1OCC(=O)Nc1ccc(S(=O)(=O)Nc2onc(C)c2C)cc1`, for which the intracellular bacterial bioluminescence is inactive: 86.2%.

Take `O=C1Nc2ccc(S(=O)(=O)N(CCO)CCO)c3cccc1c23`: the intracellular bacterial bioluminescence was inactive: 109%.

`CCc1ccc(S(=O)(=O)c2c(C(=O)N3CCCC3)cnc3ccc(C)cc23)cc1`: the intracellular bacterial bioluminescence is inactive: 71.2%.

Take `CCOc1ccc(-n2ccnc(NCc3ccc4c(c3)OCO4)c2=O)cc1`: the intracellular bacterial bioluminescence was inactive: 85.7%.

As to `CC1CC(C)CN(C(=O)c2cccn3c(-c4ccc(F)cc4)nnc23)C1` (stereo unspecified), the intracellular bacterial bioluminescence is inactive: 38.3%.

In the case of `COc1cc(NS(=O)(=O)c2cc(-c3nc(C)cs3)cs2)cc(OC)c1`, the intracellular bacterial bioluminescence is inactive: 85.8%.

As for `CCc1cccc(OCC(O)Cn2c(N3CCN(C)CC3)nc3c2c(=O)[nH]c(=O)n3C)c1` (stereo unspecified), the intracellular bacterial bioluminescence is inactive: 107%.

`Cc1c(C(=O)C2=C(O)C(=O)N(CCN(C)C)C2c2ccco2)cnn1-c1ccccc1` (stereo unspecified): the intracellular bacterial bioluminescence was inactive: 84.4%.
